# Experiment: Fadometer test for fabric yellowing of aldehyde solutions
# Conditions: 1000 ppm aldehyde solution; 0.75 grams of product on 10 cm × 10 cm swatch; 5 hours simulated sunlight, SUNTEST CPS+ Fadometer
row,SMILES,Fadometer Test on treated Fabric
1,CCCCC/C(C=O)=C/c1ccccc1 [amylic cinnamic aldehyde],Yellowish brown
2,CC(C)=CCC/C(C)=C/C=O [citral aldehyde],No yellowing
3,CC(C)=CCCC(C)CC=O (stereo not shown) [citronellal],Yellowish brown
4,CCCCCCCCCCCC=O [lauric aldehyde],No yellowing

# — US9260817B2, “Freshening compositions comprising malodor binding polymers and malodor counteractants” (The Procter & Gamble Company, priority 2009, dated 2016)
